Measurements taken from PubChem BioAssay AID274 (DTP/NCI, 2004).
The list does not hold the whole screen: it is rich in T/C values a quarter to a half above the control, in often repeated tests (any T/C) and in doses without a T/C. Other doses and runs of a compound stand elsewhere. T/C is the treated group as % of the vehicle group. Some entries give survivors of the animals treated and no T/C: the source files T/C as zero there, which appears to mark a toxic dose or a test without result, not a measured value. Some doses without a T/C left all or most animals alive at the check, yet need not have been tolerated: survival well below the control is almost never listed, so the zero probably covers shortened survival too. Survivors were counted at the toxicity check, usually on the fifth day, unless a day is given; later deaths do not show. Schedules are NCI's codes, read here as Q, the interval in days (D) or hours (H), X, the number of doses. Some entries hold several experiments; the results are listed from low to high. Where survival is the endpoint, this PubChem deposit counts one and a half times the control or more as active, and values a quarter to a half above the control carry no call in these data; other NCI protocols may use other cut-offs.

System: BDF1 mice, Lewis lung carcinoma iv, survival T/C
Test: NCI In Vivo Anticancer Drug Screen. Data for tumor model Lewis Lung Carcinoma (intravenous) in B6D2F1 (BDF1) mice
Conditions: T/C endpoint: median survival time, higher T/C = longer survival
Procedure: The antitumor activity of compounds was measured in mice bearing transplantable tumors. Survival or tumor size were measured and the results are expressed as the measurement made in the treated group (T) divided by the measurement made in the vehicle treated control group (C). The tumor model used in this assay is Lewis Lung Carcinoma (intravenous) in B6D2F1 (BDF1) mice

[1] = dose: 12.5 mg/kg/injection, schedule: Q01DX009 (ip), vehicle: Klucel (hydroxypropylcellulose) (HPC)
[2] = dose: 100.0 mg/kg/injection, schedule: Q01DX009 (ip), vehicle: Klucel (hydroxypropylcellulose) (HPC)
[3] = dose: 200.0 mg/kg/injection, schedule: Q01DX009 (ip), vehicle: saline with Tween-80
[4] = dose: 400.0 mg/kg/injection, schedule: Q01DX009 (ip), vehicle: saline with Tween-80

SMILES: COC(=O)c1cc2cc3c(c(O)c2c(=O)o1)OC1(Cc2c(O)c4c(c(O)c2O1)C(=O)C(OC)CC4=O)CC3O (centres undefined)
- survivor count (dose: 50.0 mg/kg/injection, schedule: Q01DX009 (ip), vehicle: saline with Tween-80): 9 of 10

SMILES: O=C(Nc1ccc(Cl)c(Cl)c1)Nc1c(Oc2ccc(Cl)c(Cl)c2)ccc(Cl)c1S(=O)(=O)O
- T/C [1]: 131 % of control

SMILES: CC(=O)OCC(=O)[C@@]12OC(C)(C)O[C@@H]1C[C@H]1[C@@H]3CC(C=O)=C4C=C(OCCCl)CC[C@]4(C)[C@@]3(F)[C@@H](O)C[C@@]12C
- survivor count (dose: 3.13 mg/kg/injection, schedule: Q01DX009 (ip), vehicle: Klucel (hydroxypropylcellulose) (HPC)): 10 of 10
- survivor count (dose: 6.25 mg/kg/injection, schedule: Q01DX009 (ip), vehicle: Klucel (hydroxypropylcellulose) (HPC)): 9 of 9
- survivor count [1]: 8 of 10
- survivor count (dose: 25.0 mg/kg/injection, schedule: Q01DX009 (ip), vehicle: Klucel (hydroxypropylcellulose) (HPC)): 9 of 10, 10 of 10, 9 of 9
- survivor count (dose: 50.0 mg/kg/injection, schedule: Q01DX009 (ip), vehicle: Klucel (hydroxypropylcellulose) (HPC)): 10 of 10
- survivor count [2]: 8 of 10 and 9 of 10

SMILES: O=C1N=C(Oc2ccccc2)SC1=O
- survivor count (dose: 100.0 mg/kg/injection, schedule: Q01DX009 (ip), vehicle: saline with Tween-80): 3 of 10
- survivor count [3]: 0 of 10
- survivor count [4]: 0 of 10

SMILES: CCCNC1=C(C)C(=O)C2=C(C1=O)[C@H](COC(N)=O)[C@]1(OC)[C@@H]3N[C@@H]3CN21
- survivor count (dose: 6.25 mg/kg/injection, schedule: Q01DX009 (ip), vehicle: saline): 10 of 10
- survivor count (dose: 12.5 mg/kg/injection, schedule: Q01DX009 (ip), vehicle: saline): 10 of 10

SMILES: c1cc2n(n1)CCN2
- survivor count (dose: 400.0 mg/kg/injection, schedule: Q01DX009 (ip), vehicle: saline): 0 of 10

SMILES: CCC1(O)CC2CN(CCc3c([nH]c4ccccc34)C(C(=O)OC)(c3cc4c(cc3OC)N(C)C3C(O)(C(N)=O)C(O)C5(CC)C=CCN6CCC43C65)C2)C1 (centres undefined) (tested in a mixture with another compound)
- survivor count (dose: 2.78 mg/kg/injection, schedule: Q04DX003 (ip), vehicle: saline): 8 of 8
- survivor count (dose: 4.63 mg/kg/injection, schedule: Q04DX003 (ip), vehicle: saline): 8 of 8
- survivor count (dose: 600.0 micrograms/kg/injection, schedule: Q01DX009 (ip), vehicle: saline): 8 of 8
- survivor count (dose: 1000.0 micrograms/kg/injection, schedule: Q01DX009 (ip), vehicle: saline): 7 of 8
- survivor count (dose: 1670.0 micrograms/kg/injection, schedule: Q01DX009 (ip), vehicle: saline): 8 of 8

SMILES: COC1=C(NC(C)=O)C(=O)c2nc(-c3nc(C(=O)O)c(C)c(-c4ccc(OC)c(OC)c4O)c3N)ccc2C1=O
- survivor count [2]: 10 of 10
- survivor count (dose: 200.0 mg/kg/injection, schedule: Q01DX009 (ip), vehicle: Klucel (hydroxypropylcellulose) (HPC)): 0 of 10

SMILES: O=[N+]([O-])c1ccc(Sc2ccncn2)c([N+](=O)[O-])c1
- survivor count [3]: 3 of 10

SMILES: N/C(=N\O)c1cn(C2OC(CO)C(O)C2O)c2ncnc(N)c12 (centres undefined)
- T/C (dose: 4.0 mg/kg/injection, schedule: Q01DX009 (ip), vehicle: saline): 137 % of control
- survivor count (dose: 8.0 mg/kg/injection, schedule: Q01DX009 (ip), vehicle: saline): 10 of 10
- survivor count (dose: 16.0 mg/kg/injection, schedule: Q01DX009 (ip), vehicle: saline): 9 of 10
- survivor count (dose: 32.0 mg/kg/injection, schedule: Q01DX009 (ip), vehicle: saline): 0 of 10
- survivor count (dose: 64.0 mg/kg/injection, schedule: Q01DX009 (ip), vehicle: saline): 0 of 10
- survivor count (dose: 128.0 mg/kg/injection, schedule: Q01DX009 (ip), vehicle: saline): 0 of 10

SMILES: CC1=CC(=NN=c2cc(C)n([O-])c(C)c2)C=C(C)[N+]1=O
- survivor count [4]: 8 of 10
